Test results as given in paper PMC4766014, “Structures of Two Melanoma-Associated Antigens Suggest Allosteric Regulation of Effector Binding” (PLoS ONE, 2016).
These are yes or no findings as the source states them, for the method shown. Some results given as binding are weak or reduced against the parent protein; the word gives no strength. Blank lines part the entries; values can stand above or below the molecule they belong to.

Protein sequences, listed by entry. Tags and fused reporters are not part of them. Residues count along the entry.
UniProt P43358, residues 101-317: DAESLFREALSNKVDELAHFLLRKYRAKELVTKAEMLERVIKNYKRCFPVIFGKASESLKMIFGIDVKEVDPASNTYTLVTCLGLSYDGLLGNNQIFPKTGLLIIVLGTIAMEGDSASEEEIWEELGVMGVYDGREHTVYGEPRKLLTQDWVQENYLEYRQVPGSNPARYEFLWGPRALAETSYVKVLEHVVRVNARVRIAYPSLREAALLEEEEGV

Tests used:
[1] = target: MAGE-A4 MHD domain, residues 101-317, His tag cleaved (human) (UniProt P43358); experiment: SEC; gel filtration of MAGE-A4 with the tag cleaved, without galactose; column and buffer not given; both purified
[2] = target: MAGE-A4 MHD domain, residues 101-317, His tag cleaved (human) (UniProt P43358); experiment: AUC; sedimentation velocity, 4°C, 45,000 rpm, 10 mM HEPES pH 7.5, 150 mM NaCl, 0.5 mM TCEP; MAGE-A3 at 0.75 mg/ml, MAGE-A4 at 0.5 mg/ml; c(s) analysis with SEDFIT; both purified
[3] = target: MAGE-A3 MHD domain, residues 104-314 (human) (UniProt P43357); experiment: crystal structure; MAGE-A3 104-314, 4°C, 15% PEG 3350, 0.1M Mg Formate; one molecule in the asymmetric unit, dimers A and B formed with symmetry-related molecules; both purified

- binding [1]: no binding
- binding [2]: no binding (tested: 0.5 mg/ml)
Molecule: MAGE-A4 MHD domain, residues 101-317, His tag cleaved (from UniProt P43358 101-317) (domain or fragment)

- binding [3]: binds
B1: MAGE-A3 MHD domain, residues 104-314 (domain or fragment, human, UniProt P43357 104-314, looked up)
chain: EFQAALSRKVAELVHFLLLKYRAREPVTKAEMLGSVVGNWQYFFPVIFSKASSSLQLVFGIELMEVDPIGHLYIFATCLGLSYDGLLGDNQIMPKAGLLIIVLAIIAREGDCAPEEKIWEELSVLEVFEGREDSILGDPKKLLTQHFVQENYLEYRQVPGSDPACYEFLWGPRALVETSYVKVLHHMVKISGGPHISYPPLHEWVLREGEE
notes: MAGE-A3, human, MAGE homology domain (MHD), residues 104-314; Dimer in solution by AUC and SAXS (dimer B interface); The final 4 residues are disordered in the crystal structure; also called MAGE-A3^104-314; melanoma associated antigen A3
